In publication PMC11923920:
These are yes or no findings as the source states them, for the method shown. In cells and extracts the contact can be indirect. Some binding calls cover weakened binding; strength is not graded here. For part of these data: Where a sequence is shown, tags or fusion partners need not be part of it. Values belong to the molecule of their own block, whether it stands above or below them.

Amino acid sequences for entries named in this document (tags omitted).
UniProt Q99836: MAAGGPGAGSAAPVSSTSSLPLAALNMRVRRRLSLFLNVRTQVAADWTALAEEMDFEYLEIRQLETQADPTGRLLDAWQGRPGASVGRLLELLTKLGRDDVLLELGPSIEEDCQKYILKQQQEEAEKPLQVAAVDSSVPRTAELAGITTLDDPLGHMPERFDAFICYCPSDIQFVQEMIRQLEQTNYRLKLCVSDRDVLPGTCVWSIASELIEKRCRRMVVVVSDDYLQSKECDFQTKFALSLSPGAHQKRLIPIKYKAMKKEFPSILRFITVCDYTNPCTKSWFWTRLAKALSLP

Legend:
[1] = biological target: T1, OTUD4 N-terminal domain (aa 1-155) (UniProt Q01804); test: co-IP; MYD88 with truncated OTUD4 (Figure S5E); cell line not stated
T1 sequence: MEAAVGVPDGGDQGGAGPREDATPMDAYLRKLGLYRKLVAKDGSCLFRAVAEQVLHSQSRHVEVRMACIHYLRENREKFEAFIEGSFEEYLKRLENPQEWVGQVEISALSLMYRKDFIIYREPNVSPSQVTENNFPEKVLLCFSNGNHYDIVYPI

[2] = biological target: T2, Myc-tagged OTUD4, full length (UniProt Q01804); test: co-IP; competitive binding co-IP: MYD88 pulled down by OTUD4 with increasing SPARC expression (Figure S5F); cell line not stated
T2 sequence: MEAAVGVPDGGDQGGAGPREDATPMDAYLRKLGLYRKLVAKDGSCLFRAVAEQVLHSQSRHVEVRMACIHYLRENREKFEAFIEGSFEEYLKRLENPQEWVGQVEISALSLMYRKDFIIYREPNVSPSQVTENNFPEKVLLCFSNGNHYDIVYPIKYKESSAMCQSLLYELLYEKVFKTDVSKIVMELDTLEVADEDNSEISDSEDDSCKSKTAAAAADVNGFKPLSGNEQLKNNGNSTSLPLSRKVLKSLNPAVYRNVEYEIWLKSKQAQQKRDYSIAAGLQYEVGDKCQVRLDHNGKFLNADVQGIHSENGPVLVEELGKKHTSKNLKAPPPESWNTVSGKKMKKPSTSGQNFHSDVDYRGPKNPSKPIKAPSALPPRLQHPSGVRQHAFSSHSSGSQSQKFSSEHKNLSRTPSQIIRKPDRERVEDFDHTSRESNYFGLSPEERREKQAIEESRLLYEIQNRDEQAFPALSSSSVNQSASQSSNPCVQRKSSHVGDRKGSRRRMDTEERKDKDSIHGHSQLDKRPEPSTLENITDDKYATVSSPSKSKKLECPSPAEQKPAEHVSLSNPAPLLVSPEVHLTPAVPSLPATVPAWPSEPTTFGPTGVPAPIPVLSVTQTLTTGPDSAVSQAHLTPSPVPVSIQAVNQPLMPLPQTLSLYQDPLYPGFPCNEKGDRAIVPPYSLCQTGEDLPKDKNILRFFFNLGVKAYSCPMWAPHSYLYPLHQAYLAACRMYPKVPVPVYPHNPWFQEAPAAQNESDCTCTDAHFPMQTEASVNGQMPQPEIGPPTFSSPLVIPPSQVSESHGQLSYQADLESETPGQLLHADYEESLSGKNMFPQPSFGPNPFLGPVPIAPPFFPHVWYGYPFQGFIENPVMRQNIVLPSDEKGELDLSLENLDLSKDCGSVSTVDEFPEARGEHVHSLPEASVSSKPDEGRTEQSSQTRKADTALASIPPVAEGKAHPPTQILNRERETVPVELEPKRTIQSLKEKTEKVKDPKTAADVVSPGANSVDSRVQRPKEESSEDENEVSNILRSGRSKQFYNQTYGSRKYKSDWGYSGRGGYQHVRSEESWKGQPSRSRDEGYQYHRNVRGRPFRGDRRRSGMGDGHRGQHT

[3] = biological target: T3, Flag-tagged SPARC (secreted protein acidic and cysteine-rich), full length (1-303) (UniProt P09486); test: co-IP; Caco-2 cells co-transfected with SPARC-Flag and OTUD4-Myc plasmids (full length and truncated), IP lysis buffer, lysates with magnetic beads overnight at 4 °C, washed 5 times with TBS, western blot
T3 sequence: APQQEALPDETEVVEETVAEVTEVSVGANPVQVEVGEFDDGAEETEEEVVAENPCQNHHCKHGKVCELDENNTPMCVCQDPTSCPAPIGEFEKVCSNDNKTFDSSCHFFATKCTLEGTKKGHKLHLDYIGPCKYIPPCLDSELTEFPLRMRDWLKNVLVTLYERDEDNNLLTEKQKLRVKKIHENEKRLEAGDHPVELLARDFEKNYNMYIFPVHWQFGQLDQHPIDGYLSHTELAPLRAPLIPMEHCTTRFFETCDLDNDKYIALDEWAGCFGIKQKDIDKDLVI

binding [1]: binds
binding [2]: binds
Molecule: His-tagged MYD88 (from UniProt Q99836 1-296)

binding [3]: binds
B1: OTUD4 N-terminal domain (aa 1-155) (domain or fragment, UniProt Q01804 1-155)
chain: T1 sequence
